Laboratory results: PMC6588346

Sequences of proteins named here, by UniProt entry; tags and fusion partners are left off.
UniProt P18850: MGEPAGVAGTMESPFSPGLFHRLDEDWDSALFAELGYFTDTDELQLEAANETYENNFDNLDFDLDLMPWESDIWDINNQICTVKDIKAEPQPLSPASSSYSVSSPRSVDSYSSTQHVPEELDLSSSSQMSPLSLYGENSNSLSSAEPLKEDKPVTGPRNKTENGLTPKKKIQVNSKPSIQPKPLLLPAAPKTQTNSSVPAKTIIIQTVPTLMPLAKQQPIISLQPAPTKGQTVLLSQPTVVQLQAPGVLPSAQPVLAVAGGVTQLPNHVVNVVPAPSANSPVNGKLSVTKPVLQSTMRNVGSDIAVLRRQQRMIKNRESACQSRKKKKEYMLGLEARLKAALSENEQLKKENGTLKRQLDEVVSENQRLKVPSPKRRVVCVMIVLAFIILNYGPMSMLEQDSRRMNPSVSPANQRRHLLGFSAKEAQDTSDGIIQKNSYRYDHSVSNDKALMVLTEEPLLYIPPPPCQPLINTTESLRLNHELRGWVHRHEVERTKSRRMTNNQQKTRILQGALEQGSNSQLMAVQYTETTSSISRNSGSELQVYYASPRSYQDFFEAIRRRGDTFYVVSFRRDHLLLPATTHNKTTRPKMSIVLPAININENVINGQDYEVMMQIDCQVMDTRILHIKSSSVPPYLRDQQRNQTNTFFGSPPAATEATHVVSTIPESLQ

Target: 6xHis-3xFLAG-HsATF6α (human) (UniProt P18850)
Test: affinity purification with mass spectrometry; anti-FLAG M2 beads, native IP from 3xFLAG-ATF6α HEK293 cells treated with 100 nM Tg and 6 μM Ceapin-A7 for 30 min; 1% LMNG lysis, Ceapin kept in the buffers; TMT, MuDPIT

binding: binds
Substance: SQSTM1 (from UniProt Q13501 1-440)

Results are given in words; binding and its absence hold for the method and conditions named. In cells and extracts the contact can be indirect. These calls come from enrichment with a bait or labelling near it, and not all partners need be listed.
